The text below walks through data of PubChem BioAssay AID330 (DTP/NCI, 2004).

The list is a part of this screen's results and no random one: it gathers tests that were run many times, whatever their T/C, doses with no T/C, and many T/C values between a quarter and a half above the control. Further doses and runs are listed elsewhere. T/C gives the treated animals as a percentage of the vehicle group. Some doses have a count of surviving animals in place of a T/C: the source files T/C as zero there, which appears to mark a toxic dose or a test without result, not a measured value. Some doses without a T/C left all or most animals alive at the check, yet need not have been tolerated: survival well below the control is almost never listed, so the zero probably covers shortened survival too. Counts of survivors are from the toxicity check (mostly the fifth day) where no day follows; animals may have died later. Schedules are NCI's codes, taken here to give the interval after Q, in days (D) or hours (H), and the number of doses after X. Some entries hold several experiments; the results are listed from low to high. Where survival is the endpoint, this PubChem deposit counts one and a half times the control or more as active, and values a quarter to a half above the control carry no call in these data; other NCI protocols may use other cut-offs. Counts like (3×) count equal records among those shown. Some T/C values carry the count of animals alive at the toxicity check (mostly the fifth day); without a count, all were alive then.

The subject of the test is P388 leukemia ip, CD2F1 mice, survival T/C. The experiment in a line: NCI In Vivo Anticancer Drug Screen. Data for tumor model P388 Leukemia (intraperitoneal) in CD2F1 (CDF1) mice. Conditions: T/C endpoint: median survival time, higher T/C = longer survival.
[1] abbreviates: dose: 200.0 mg/kg/injection, schedule: Q01DX005 (ip), vehicle: saline with Tween-80.
Setting [2] is: dose: 12.5 mg/kg/injection, schedule: Q01DX009 (ip), vehicle: saline.
[3] abbreviates: dose: 50.0 mg/kg/injection, schedule: Q01DX005 (ip), vehicle: Klucel (hydroxypropylcellulose) (HPC).
[4] abbreviates: dose: 100.0 mg/kg/injection, schedule: Q01DX005 (ip), vehicle: Klucel (hydroxypropylcellulose) (HPC).
Where [5] appears, read: dose: 200.0 mg/kg/injection, schedule: Q01DX005 (ip), vehicle: Klucel (hydroxypropylcellulose) (HPC).
Setting [6] is: dose: 240.0 mg/kg/injection, schedule: Q01DX005 (ip), vehicle: saline with Tween-80.
[7] abbreviates: dose: 200.0 mg/kg/injection, schedule: Q01DX009 (ip), vehicle: Klucel (hydroxypropylcellulose) (HPC).
Where [8] appears, read: dose: 50.0 mg/kg/injection, schedule: Q01DX009 (ip), vehicle: saline with Tween-80.
Setting [9] is: dose: 200.0 mg/kg/injection, schedule: Q01DX009 (ip), vehicle: saline with Tween-80.

With `CCCCN(CCCC)C(=N)c1ccnc2ccccc12`, the survivor count reads like this: (dose: 50.0 mg/kg/injection, schedule: Q01DX005 (ip), vehicle: saline) 2 of 5; (dose: 100.0 mg/kg/injection, schedule: Q01DX005 (ip), vehicle: saline) 0 of 5; (dose: 200.0 mg/kg/injection, schedule: Q01DX005 (ip), vehicle: saline) 0 of 5.
As for `C=CCc1cccc2cc(C(=O)OCCCN(CC)CC)c(=O)oc12`, the survivor count under setting [1] is 3 of 5.
Take `O=NNc1ccc(-c2ccccc2)cn1`: the T/C (dose: 6.25 mg/kg/injection, schedule: Q01DX009 (ip), vehicle: saline) was 126 % of control and the T/C under setting [2] is 137 % of control. The survivor count under setting [2] was 1 of 6; the survivor count (dose: 25.0 mg/kg/injection, schedule: Q01DX009 (ip), vehicle: saline) is on record as 0 of 6; the survivor count (dose: 50.0 mg/kg/injection, schedule: Q01DX009 (ip), vehicle: saline) is 0 of 6.
`O=P(CCCCP(=O)(c1ccccc1)c1ccccc1)(c1ccccc1)c1ccccc1.[Cl][Sn]([Cl])([c]1ccccc1)[c]1ccccc1`: the T/C (dose: 6.25 mg/kg/injection, schedule: Q01DX005 (ip), vehicle: Klucel (hydroxypropylcellulose) (HPC)) was 126 and 130 % of control; the T/C (dose: 12.5 mg/kg/injection, schedule: Q01DX005 (ip), vehicle: Klucel (hydroxypropylcellulose) (HPC)) is 140 % of control. The survivor count (dose: 25.0 mg/kg/injection, schedule: Q01DX005 (ip), vehicle: Klucel (hydroxypropylcellulose) (HPC)) is 0 of 6; the survivor count under setting [3] is 1 of 6; the survivor count under setting [4] is listed as 0 of 6; the survivor count under setting [5] is reported as 0 of 6.
Turning to `COc1ccc([N+]2=Cc3cc(OC)c(OC)cc3CC2)cc1OC`, the survivor count was 5 of 6 (dose: 200.0 mg/kg/injection, schedule: Q01DX009 (ip), vehicle: water) and 0 of 6 (dose: 400.0 mg/kg/injection, schedule: Q01DX009 (ip), vehicle: water).
Take `COc1c(OCC(O)CN2CCOCC2)c2c(C)coc2c2ccoc12` (centres undefined): under “dose: 240.0 mg/kg/injection, schedule: Q01DX005 (ip), vehicle: Klucel (hydroxypropylcellulose) (HPC)”, the survivor count is given as 0 of 6.
Take `O=C(CCl)Nc1cc2ccccc2oc1=O`: the survivor count under setting [6] is 1 of 6.
As for `O=[N+]([O-])c1cccc2nc(-c3ccccn3)n(CCc3ccncc3)c12`, the survivor count (dose: 400.0 mg/kg/injection, schedule: Q01DX001 (ip), vehicle: Klucel (hydroxypropylcellulose) (HPC)) is 6 of 6.
As to `FC(F)(F)C1=C(C(F)(F)F)SP(Cl)(Cl)(c2ccccc2)S1`, the survivor count by setting is: (dose: 150.0 mg/kg/injection, schedule: Q04DX003 (ip), vehicle: saline with Tween-80) 2 of 6; (dose: 300.0 mg/kg/injection, schedule: Q04DX003 (ip), vehicle: saline with Tween-80) 0 of 6.
On to `c1ccc2nc(N=Nc3cnc4ccccc4n3)cnc2c1`, for which the survivor count (dose: 25.0 mg/kg/injection, schedule: Q01DX001 (ip), vehicle: saline with Tween-80) is on record as 6 of 6.
Consider `COc1cccc2c1C(=O)c1c(O)c3c(c(O)c1C2=O)C[C@@](O)(/C(C)=N/NC(=O)c1ccc(S(N)(=O)=O)cc1)C[C@@H]3OC1CC(N)C(O)C(C)O1` (some centres undefined), for which the T/C was 136 % of control (dose: 0.38 mg/kg/injection, schedule: Q01DX009 (ip), vehicle: water); 141 % of control (dose: 0.39 mg/kg/injection, schedule: Q01DX009 (ip), vehicle: water); 133 % of control (dose: 0.78 mg/kg/injection, schedule: Q01DX009 (ip), vehicle: water); 140 % of control (dose: 1.56 mg/kg/injection, schedule: Q01DX009 (ip), vehicle: water); 135 % of control [5 of 6 alive] (dose: 18.8 mg/kg/injection, schedule: Q04DX003 (ip), vehicle: water); 145 % of control (dose: 37.5 mg/kg/injection, schedule: Q04DX003 (ip), vehicle: water). The T/C is 132 % of control (dose: 50.0 mg/kg/injection, schedule: Q01DX001 (ip), vehicle: water) and 133 % of control (dose: 75.0 mg/kg/injection, schedule: Q04DX003 (ip), vehicle: water). Also, the survivor count is, setting by setting: (dose: 25.0 mg/kg/injection, schedule: Q01DX009 (ip), vehicle: water) 6 of 6; (dose: 100.0 mg/kg/injection, schedule: Q01DX001 (ip), vehicle: water) 5 of 6; (dose: 200.0 mg/kg/injection, schedule: Q01DX001 (ip), vehicle: water) 0 of 6; (dose: 400.0 mg/kg/injection, schedule: Q01DX001 (ip), vehicle: water) 0 of 6.
On to `O=C(CC(NC(=O)OCc1ccccc1)C(=O)O)OCc1ccccc1` (centres undefined), for which the T/C (dose: 400.0 mg/kg/injection, schedule: Q04DX003 (ip), vehicle: saline sonified) is 125 % of control [5 of 6 alive].
As for `CC(=O)N(C(C)=O)N1C(=O)C2C3C=CC(C4CC34)C2C1=O` (centres undefined), the survivor count under setting [7] is 2 of 6.
As to `CCC(CC)C[Se][Se]CC(CC)CC`, the survivor count is, setting by setting: (dose: 50.0 mg/kg/injection, schedule: Q01DX009 (ip), vehicle: Klucel (hydroxypropylcellulose) (HPC)) 6 of 6; (dose: 100.0 mg/kg/injection, schedule: Q01DX009 (ip), vehicle: Klucel (hydroxypropylcellulose) (HPC)) 6 of 6; under setting [7], 0 of 6.
Regarding `Cc1cn(CCCCCCCCCCCCOc2c3occc3cc3ccc(=O)oc23)c(=O)[nH]c1=O`, the survivor count under setting [3] is 6 of 6 and the survivor count under setting [4] was 6 of 6.
Turning to `C/C(=N\NC(=S)N1CCC(C)CC1)c1nccs1`, the survivor count by setting is: (dose: 50.0 mg/kg/injection, schedule: Q01DX005 (ip), vehicle: saline with Tween-80) 4 of 6; (dose: 100.0 mg/kg/injection, schedule: Q01DX005 (ip), vehicle: saline with Tween-80) 0 of 6; under setting [1], 0 of 6.
For `COC(=O)C1=C(C)NC(C)=C(C(=O)OCCCN2CCC(c3ccccc3)(c3ccccc3)CC2)C1c1cccc([N+](=O)[O-])c1` (centres undefined), the survivor count reads like this: (dose: 60.0 mg/kg/injection, schedule: Q01DX005 (ip), vehicle: saline with Tween-80) 0 of 6; (dose: 120.0 mg/kg/injection, schedule: Q01DX005 (ip), vehicle: saline with Tween-80) 0 of 6; under setting [6], 0 of 6.
Consider `COc1ccc(NC(=O)C2C(=O)N(c3ccc(OC)cc3)C(=O)/C2=N/N=C(N)N)cc1` (centres undefined), for which the survivor count is reported as 2 of 6 (dose: 200.0 mg/kg/injection, schedule: Q04DX002 (ip), vehicle: saline with Tween-80) and 2 of 6 (dose: 400.0 mg/kg/injection, schedule: Q04DX002 (ip), vehicle: saline with Tween-80).
For `CC(=O)Nc1ccc(C(=O)C(C)Br)cc1` (centres undefined), the survivor count by setting is: under setting [8], 2 of 6 and 3 of 6; (dose: 100.0 mg/kg/injection, schedule: Q01DX009 (ip), vehicle: saline with Tween-80) 0 of 6; under setting [9], 0 of 6.
For `CC12CCC(OC3OC(CO)C(O)C(O)C3O)C=C1CCC1C2CCC2(C)C(c3ccc(=O)oc3)CCC12` (centres undefined), the survivor count was 0 of 6 and 1 of 6 under setting [3]; 0 of 6 under setting [4]; 0 of 6 under setting [5].
For `CC(=O)c1ccc2c(=O)c(C(=O)O)c[nH]c2c1`, the survivor count under setting [8] is given as 6 of 6.
Regarding `O=c1oc(-c2ccc(Cl)cc2Cl)nc2cc(Cl)ccc12`, the survivor count under setting [6] is listed as 0 of 6.
For the compound `CCCCCCCCOC(=O)c1ccc(O)cc1`, the survivor count under setting [9] is recorded as 5 of 6.
Regarding `CCOC(=O)C1C(=O)N(C)C(=O)N1c1ccc(C)cc1` (centres undefined), under setting [6], the survivor count is 6 of 6.
Take `CN(Cc1ccccc1)CC(CCC1OCCO1)(CCC1OCCO1)c1ccccc1`: the survivor count under setting [7] is listed as 6 of 6.
Take `Cc1ccc(S(=O)(=O)OC(=C(F)F)[Si](C)(C)C)cc1`: the survivor count under setting [9] is on record as 6 of 6.
Same read-out and setting: under `O=C1Oc2ccc3ccccc3c2CC1C(=O)c1ccc(Cl)cc1` (centres undefined) stands 6 of 6.
With `CN(C)C(=S)SCNC(=S)NCSC(=S)N(C)C`, under setting [8], the T/C was 126 % of control (2×).
